Experimental data from PubChem BioAssay AID1487 (National Center for Advancing Translational Sciences (NCATS), 2009).
The other results are listed elsewhere or left out. Further columns of the screen follow, without active or inactive calls. Most of these compounds were active or inconclusive in the main read-out, so they are no random draw. Words in brackets tell the shape of the fitted curve; partial curves, single points and poor fits give uncertain potencies.

Test: qHTS Assay for Modulators of Lamin A Splicing
Details: HeLa LMNA splicing GFP/RFP minigene ratio, 48 h
How it was run: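 S3 HeLa stable clones carrying a lamin A-EGFP splicing minigene plus DsRed2 were seeded at 600 cells/well in Opti-MEM with 2% FBS, pin-dosed and incubated 48 h at 37°C. Acumen cytometry (488 nm) gave the GFP/RFP total-intensity ratio.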

[1] = measured here: RFP viability control channel
[2] = measured here: GFP splicing reporter channel

SMILES | AC50 [1] | AC50 [2]
COC(=O)c1ccc(Cl)c(NC(=O)c2cccc([N+](=O)[O-])c2C)c1 | 0.02 µM [falling, full curve, poor fit] | 
Cc1ccc2[nH]c3c(c2c1)CCCC3=O | 7.08 µM [falling, partial curve] | 
N#CC(c1ccccc1)N(CCCCl)C(=O)c1ccc(Br)cc1 (stereo unspecified) | 17.8 µM [rising, single point] | 14.1 µM [rising, single point]
COc1ccc(NC(=O)Cn2nnc(C(=O)NCCc3ccc(OC)c(OC)c3)c2N)c(OC)c1 | 0.398 µM [falling, partial curve, poor fit] | 
Cc1ccc(S(=O)(=O)N2CCC(=O)N(C(COCc3cccc(C(F)(F)F)c3)Cc3ccccc3)CC2)cc1 (stereo unspecified) | 12.6 µM [rising, partial curve] | 
CCOC(=O)c1cnn(-c2ccccc2)c1-n1cccc1C(=O)C(=O)Nc1ccccc1 | 35.5 µM [rising, single point] | 
O=C(O)/C=C/C(=O)Nc1ccc(C(=O)c2ccccc2)cc1 |  | 12.6 µM [falling, partial curve, poor fit]
CCOC(=O)c1c(-c2ccccc2)csc1NC(=S)NC(=O)c1ccccc1 | 10 µM [rising, partial curve, poor fit] | 
CN1CCN(C(c2ccc(F)cc2)c2sc3nc(-c4ccco4)nn3c2O)CC1 (stereo unspecified) |  | 6.31 µM [falling, partial curve, poor fit]
O=C(NC1CCCCCCC1)C1CCN(c2nc3ccccc3o2)CC1 | 7.08 µM [rising, partial curve, poor fit] | 
CCc1nc2sccc2c(=O)n1N |  | 0.224 µM [rising, full curve, poor fit]
O=S(=O)(c1ccccc1)N(CC1CO1)c1ccccc1 (stereo unspecified) |  | 17.8 µM [falling, single point]
Cc1cc(NC(=O)CSc2nc3c([nH]c4ccccc43)c(=O)n2-c2cccc(Cl)c2)no1 |  | 2.51 µM [falling, partial curve]
CCn1cc(C(=O)O)c(=O)c2cc(F)c(N3CCNCC3)nc21 | 1.26 µM [rising, partial curve, poor fit] | 
COC(=O)[C@H]1[C@H]2CC3c4[nH]c5ccccc5c4CCN3C[C@@H]2CC[C@@H]1O (stereo partly specified) | 35.5 µM [falling, single point] | 35.5 µM [falling, single point]
C/C(=N\NC(N)=O)c1ccc(Cl)cc1 | 35.5 µM [falling, single point] | 35.5 µM [falling, single point]
CC(C)CNC(=S)N1CCC(C(=O)c2ccc3c(c2)OCCO3)CC1 |  | 0.0282 µM [rising, full curve, poor fit]
COc1ccc(CNS(=O)(=O)c2cc(C(=O)Nc3cc(Cl)cc(Cl)c3)ccc2F)cc1 | 25.1 µM [falling, single point] | 14.1 µM [falling, single point]

An excerpt of the results above, for reference:
SMILES | AC50 [1] | AC50 [2]
CN1CCN(C(c2ccc(F)cc2)c2sc3nc(-c4ccco4)nn3c2O)CC1 (stereo unspecified) |  | 6.31 µM [falling, partial curve, poor fit]
O=C(NC1CCCCCCC1)C1CCN(c2nc3ccccc3o2)CC1 | 7.08 µM [rising, partial curve, poor fit] | 
CCc1nc2sccc2c(=O)n1N |  | 0.224 µM [rising, full curve, poor fit]
O=S(=O)(c1ccccc1)N(CC1CO1)c1ccccc1 (stereo unspecified) |  | 17.8 µM [falling, single point]
Cc1cc(NC(=O)CSc2nc3c([nH]c4ccccc43)c(=O)n2-c2cccc(Cl)c2)no1 |  | 2.51 µM [falling, partial curve]
CCn1cc(C(=O)O)c(=O)c2cc(F)c(N3CCNCC3)nc21 | 1.26 µM [rising, partial curve, poor fit] | 
COC(=O)[C@H]1[C@H]2CC3c4[nH]c5ccccc5c4CCN3C[C@@H]2CC[C@@H]1O (stereo partly specified) | 35.5 µM [falling, single point] | 35.5 µM [falling, single point]

Next part

SMILES | AC50 [1] | AC50 [2]
C=C1CC[C@H](O)C/C1=C/C=C1\CCC[C@]2(C)[C@H]1CC[C@H]2[C@@H](C)/C=C\[C@@H](C)C(C)C | 0.1 µM [rising, full curve, poor fit] | 
Cc1ccc(N2NC(=O)/C(=C\c3cc4c(cc3[N+](=O)[O-])OCO4)C2=O)cc1C | 12.6 µM [rising, single point] | 17.8 µM [rising, single point]
COc1cc(OC)cc(C2=NCCN2)c1 |  | 0.891 µM [rising, full curve]
CCOC(=O)c1cc2cc(OC)ccc2[nH]1 | 12.6 µM [rising, partial curve] | 15.8 µM [rising, partial curve]
COc1cccc(S(=O)(=O)Nc2ccc(C(=O)N3CCN(C(=O)c4ccco4)CC3)cc2)c1 | 11.2 µM [rising, partial curve] | 
Cc1cccc(S(=O)(=O)Nc2nc3ccccc3nc2Nc2ccc3c(c2)OCO3)c1 | 5.62 µM [rising, single point] | 0.00891 µM [rising, single point]
CC(/C=N/N1CCN(Cc2ccccc2)CC1)=C\c1ccccc1 | 3.16 µM [falling, partial curve, poor fit] | 0.631 µM [falling, partial curve]
c1ccc(OCCSc2nc3ccccc3o2)cc1 |  | 31.6 µM [rising, single point]
O=C(COc1ccccc1-c1ccccc1)N/N=C/c1cccnc1 | 11.2 µM [rising, partial curve, poor fit] | 20 µM [rising, partial curve, poor fit]
COC(=O)c1ccc(Cl)c(NC(=O)CN(c2ccccc2)S(=O)(=O)c2ccc(OC)cc2)c1 | 25.1 µM [rising, single point] | 
C#CCn1cc(/C=N/Nc2nc3ccccc3[nH]2)c2ccccc21 | 14.1 µM [rising, single point] | 
Cc1ccccc1[C@@H](OCCN(C)C)c1ccccc1 |  | 0.00501 µM [falling, full curve, poor fit]
Cc1ccc(-c2noc(CSc3nc(N)cc(N)n3)n2)cc1 | 14.1 µM [rising, partial curve, poor fit] | 
CCc1nc2ccccc2c(=O)n1NCCc1ccccc1 | 3.98 µM [rising, full curve, poor fit] | 
CC1=CC(C)(C)N2C(=O)C3(NCCc4c3[nH]c3ccccc43)c3cccc1c32 (stereo unspecified) | 12.6 µM [falling, single point] | 
O=C(c1ccc(C(F)(F)F)cc1)N1CCC(=O)N(C(COCc2ccc(Cl)cc2)Cc2ccccc2)CC1 (stereo unspecified) | 22.4 µM [rising, single point] | 14.1 µM [rising, partial curve]
CC1=CC(C)(C)Nc2ccc(OC(=O)CCN3C(=O)c4ccccc4C3=O)cc21 | 20 µM [falling, single point] | 22.4 µM [falling, partial curve]
